Test results: patent US20080108790 (published 2008)

Legend:
[1] = general procedure: Fmoc solid-phase peptide synthesis; Sieber; diisopropylcarbodiimide/HOBt in NMP; settings: cyclisation step
[2] = general procedure: Fmoc solid-phase peptide synthesis; Sieber resin; diisopropylcarbodiimide/HOBt in NMP; settings: late stage modification step

Boc-Gly-Cyclo(Cys-Har-Gly-Asp(tBu)-Trp(Boc)-Pro-Cys)-Sieber
cyclisation yield [1]: 100%
step yield [2]: 98.9%
